By UniProt entry, the sequences of proteins in these tests, tags left out.
UniProt Q99JI6: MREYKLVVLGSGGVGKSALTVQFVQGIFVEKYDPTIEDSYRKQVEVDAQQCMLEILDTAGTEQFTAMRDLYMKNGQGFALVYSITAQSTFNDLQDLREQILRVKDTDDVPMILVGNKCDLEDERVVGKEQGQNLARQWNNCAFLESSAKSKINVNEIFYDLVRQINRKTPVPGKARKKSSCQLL

In publication PMC12800066:

Molecular target: T1, DCSTAMP (mouse, wild type) (mouse (endogenous in mBMMs)) (UniProt Q7TNJ0)
T1 sequence: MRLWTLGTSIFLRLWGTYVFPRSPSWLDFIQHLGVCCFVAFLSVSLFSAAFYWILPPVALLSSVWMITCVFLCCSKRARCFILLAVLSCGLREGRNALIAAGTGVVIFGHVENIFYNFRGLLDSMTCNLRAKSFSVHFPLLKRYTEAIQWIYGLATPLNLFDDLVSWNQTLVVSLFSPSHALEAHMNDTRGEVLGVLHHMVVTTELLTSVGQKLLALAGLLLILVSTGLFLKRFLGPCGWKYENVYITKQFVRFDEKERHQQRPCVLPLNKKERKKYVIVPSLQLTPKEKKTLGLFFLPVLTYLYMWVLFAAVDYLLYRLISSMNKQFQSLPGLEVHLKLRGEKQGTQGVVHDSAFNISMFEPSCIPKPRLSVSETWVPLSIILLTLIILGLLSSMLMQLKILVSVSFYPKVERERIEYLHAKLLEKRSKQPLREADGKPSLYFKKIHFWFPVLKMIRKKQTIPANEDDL
Assay: affinity purification with mass spectrometry; Co-IP with DCSTAMP antibody from WT and Dcstamp-tail−/− lysates (mBMMs), proteins identified by mass spectrometry

binding: binds
Substance: RAP1B (from UniProt Q99JI6 1-184)

No constants are given. Whether binding was seen depends on the method and setting. Binding seen in cells or lysates may run through a third protein. These calls come from enrichment with a bait or labelling near it, and not all partners need be listed.
